From PubChem BioAssay AID1347423 (Functional Genomics Laboratory (NCATS/FGL), 2020)
The whole screen tested about 52,000 sequences, of which about 210 (0.4%) were called active.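 Rule for the calls: active = gene whose silencing raises cell survival under the drug, median off-target-corrected z-score across its silencing RNAs 2 or more; inactive = the rest.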 The list shows a part of the results.

experiment: Resistance to Poly (ADP-Ribose) Polymerase inhibitor: Gene Identification via Genome-wide siRNA Screen; settings: mouse BRCA2 R2336H ES cells, olaparib, CellTiter-Glo viability; active compounds read high
How it was run: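 Mouse BRCA2 R2336H ES cells were reverse-transfected with siRNA (20 nM final), treated at 48 h with 500 nM olaparib, and read by CellTiter-Glo after 72 h. Scores: MAD-based z per siRNA, median per gene, seed off-target correction.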

Sequence	z-score
GGAAAUGAACAUGUGACUATT against 4930553M18Rik	inactive: 0.273
GGGCAAAUGUAAAAAGACUTT against Fst	inactive: -1.47
CGUGUUACAUCAUCAGUUCTT against Gja9	inactive: 1.28
GCACUUUCAGCGGUCUCAUTT against Card14	inactive: -1.04
GGUGUUUGAAGAGCUGACATT against Pde6b	inactive: 1.57
CCUUGCACUUACCGCUCCUTT against E130012K09	inactive: 0.754
GGUAUCACGAGCAUUCUCATT against Rrh	inactive: -0.655
GGUAUACGUGGACAACAGCTT against Esr1	inactive: -0.67
CGCAGAGAUUGUGCGGACUTT against Myg1	inactive: -1.71
CCACGCAAAAGAAUAUAAGTT against Mtss1	inactive: 0.0711
CCCAACAUUUCCCUAUGUCTT against Ingaprp	inactive: 1.1
GGCCAAAACCUAUGAAUUCTT against Cbx8	inactive: 1.11
GGAGAUUCUCUCUGAUCAATT against D16Ertd480e	inactive: -1.15
CCUCGAUAGGUUAGUGACATT against LOC382137	inactive: -2.16
CCUACAGCCACCUAAUAGATT against Olfr1196	inactive: -0.362
GGAAGUCUCGAUAUCAUUCTT against Cd300lg	inactive: -0.699
GCUAGAAUCAUGGCAAAUATT against 9530002B09Rik	inactive: -1.13
GGACCAGUUUAUCCAGCACTT against Mc3r	inactive: 0.21
GGAUGGUAGAGUCUCUUAUTT against Olfr414	inactive: -1.22
GCCAAGAAUAGCAUUACUGTT against 3830405G04Rik	inactive: -0.0592
CGAAAUUUAACUUGAACAGTT against 4930547C10Rik	inactive: -0.544
CCUGAUGCCAGAAUCUAAGTT against Ermap	inactive: 0.262

Sequence	z-score
GGUUAAUUCCAACAAAGCATT against Orc4l	inactive: -0.209
GGCAAUCAUGGACCUUAUUTT against 1700030K01Rik	inactive: -1.63
GGAUGUGCCUGCCACUAUUTT against Cyp1b1	inactive: 0.709
GGAUGGAUCGUUUCUUAUUTT against Blnk	inactive: -0.233
CGGCUCACAAAUAUACAGUTT against Pira1	inactive: -0.438
CGUUGUUCAAAGAUUCUCCTT against 2310020F24Rik	inactive: 0.706
GCGCUAGAAGGCCAGAUAUTT against Orm3	inactive: -0.322
CGCACACAGUCGUAUGUACTT against Ryr1	inactive: 0.21
GGAUGUUUUUGAACUACAUTT against Brdt	inactive: -0.0736
GCAAAAAACUACUUUUACCTT against Chrna1	inactive: 1.19
CCUUUUUGAUGCCAUCGUUTT against BC056929	inactive: 1.78
GGUAUGGAAGAAGAAGCGCTT against Phlda2	inactive: 0.839
GGGUUCAAAUAGUUUACCUTT against Tmem33	inactive: 1
CCUAGAGAUGUCAGUACUATT against Tas2r123	inactive: -0.73
GGAACUUGUACAAAUAGGATT against BC005662	inactive: 0.313
GGGAUUGAAAGAAGAAAAGTT against 1700029P11Rik	inactive: -1.21
GCACCUCUACACUUUAGAUTT against Gnb2-rs1	inactive: -0.0472
GGAGAUGCCUGGUGAUAAATT against BC037393	inactive: -1.64
GGUUAUGGCCUGUAUUAGATT against Hsd17b13	inactive: -0.526
GCAGCCUAUUACCUCAGACTT against B830017A01Rik	inactive: -0.64
GCUAAAAUUAGAGUGUCUGTT against Gtf2h2	inactive: 2.11
CCGAUGGUCGCACUUCUUATT against Olfr560	inactive: -0.681

Given bar-delimited: part of the list above
Sequence | z-score
GGUUAAUUCCAACAAAGCATT against Orc4l | inactive: -0.209
GGCAAUCAUGGACCUUAUUTT against 1700030K01Rik | inactive: -1.63
GGAUGUGCCUGCCACUAUUTT against Cyp1b1 | inactive: 0.709
GGAUGGAUCGUUUCUUAUUTT against Blnk | inactive: -0.233
CGGCUCACAAAUAUACAGUTT against Pira1 | inactive: -0.438
CGUUGUUCAAAGAUUCUCCTT against 2310020F24Rik | inactive: 0.706
CGCACACAGUCGUAUGUACTT against Ryr1 | inactive: 0.21
GGAUGUUUUUGAACUACAUTT against Brdt | inactive: -0.0736
GCAAAAAACUACUUUUACCTT against Chrna1 | inactive: 1.19
GCACCUCUACACUUUAGAUTT against Gnb2-rs1 | inactive: -0.0472
GGAGAUGCCUGGUGAUAAATT against BC037393 | inactive: -1.64
GCAGCCUAUUACCUCAGACTT against B830017A01Rik | inactive: -0.64
CCGAUGGUCGCACUUCUUATT against Olfr560 | inactive: -0.681

Additional entries:

Sequence	z-score
GGACGGAGGAUUCUGAAACTT against D030028O16Rik	inactive: 1.45
CCAUUGAGGGAAAUAAACUTT against Fabp2	inactive: 0.528
GGACUGUAUGUGGAAUGGCTT against Bmyc	inactive: -0.789
GGCAAACGAGAAGAAGGAGTT against Serf2	inactive: -1.35
GGAAGAAGAUAAAGAGAAATT against Gtf2a1	inactive: -0.0278
GGAUUUAUAUCUGAAGUCUTT against Bach1	inactive: 0.425
GGUGAACGGAUAUCCUGUGTT against Pdzk2	inactive: -0.386
GGGAUUUUACUCAGGAUUATT against 4930518F03Rik	inactive: 1.04
GCUAUGUGUGGCUAAGUUATT against Usp9x	inactive: -1.63
GGAAAAUUACCAGAGCACCTT against Ntf3	inactive: 0.191
GGAAAUAUAUCUGAAAGGGTT against 4930544G21Rik	inactive: 0.229
GGAUCAUCUCUUUGGGCUGTT against Pr1	inactive: 0.512
GGAUAUCAAGAAAAUGACATT against AW060714	inactive: -0.459
GGUAAUCUCCAAAAAACCATT against Pira3	inactive: 0.516
GGAUGAGUUUUUCUAUAGCTT against 4732474A20Rik	inactive: 0.308
GGAUCUGGCCCAAUAUUGUTT against Prss12	inactive: 0.0684
GGCUCCAAAUCAAACUCUATT against 1300018P11Rik	inactive: 0.0132
GGGAGCCAAACAAAAUUGCTT against Bet1	inactive: -0.365
GUCAUCAAACUAGGUGCUGTT against Olfr584	active: 5.09
GGAAAGAAAAAGGUGUCAATT against 2410141M05Rik	inactive: -0.823
GGAAACUCGAAAUAUAUCUTT against 6030463G20Rik	inactive: 0.183
CCACGGAGACAACUUAGUATT against Scfd2	inactive: -0.745
